Data from paper PMC10442929.
These are yes or no findings as the source states them, for the method shown. In cells and extracts the contact can be indirect. Some entries that bind do so weakly or less than the wild type. Tags and fused reporters may be left off the sequences shown.

The chains behind the UniProt entries cited, without tags or fusion partners. Where a name states a change or a piece, a line headed by the entry shows the natural chain unless it says otherwise.
UniProt P61829: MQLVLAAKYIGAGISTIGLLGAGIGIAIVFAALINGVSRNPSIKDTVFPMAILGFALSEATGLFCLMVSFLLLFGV

T1: mitochondrially encoded Cox6 with a C-terminal protein C tag (product of COX6-C^m) (S. cerevisiae) (UniProt P61829+P00427)
T1 sequence (chain, 35S-methionine/cysteine label): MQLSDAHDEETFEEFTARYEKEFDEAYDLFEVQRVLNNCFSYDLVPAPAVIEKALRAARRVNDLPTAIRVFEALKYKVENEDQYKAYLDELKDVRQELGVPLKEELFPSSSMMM


How the values were obtained:
[1] = target: T1, mitochondrially encoded Cox6 with a C-terminal protein C tag (product of COX6-C^m) (S. cerevisiae); assay: co-IP; mitochondria labelled with 35S-methionine/cysteine for 20 min, extracted with 2% digitonin, purified on protein C antibody beads; eluate on 12% SDS-PAGE, autoradiography
[2] = target: T1, mitochondrially encoded Cox6 with a C-terminal protein C tag (product of COX6-C^m) (S. cerevisiae); assay: co-IP + native gel or EMSA; digitonin extract of 35S-labelled mitochondria purified on protein C beads, then BN-PAGE (4-13%) in the first and SDS-PAGE (12%) in the second dimension, autoradiography

Row | binding [1] | binding [2] | Molecule
1 | binds | binds | Atp9 subunit of the ATP synthase (from UniProt P61829 1-76)
2 |  | no binding | mitochondrially encoded Cox6 with a C-terminal protein C tag (product of COX6-C^m) (protein, UniProt P61829 1-3; P00427 41-148, 35S-methionine/cysteine label) MQLSDAHDEETFEEFTARYEKEFDEAYDLFEVQRVLNNCFSYDLVPAPAVIEKALRAARRVNDLPTAIRVFEALKYKVENEDQYKAYLDELKDVRQELGVPLKEELFPSSSMMM
